Measured values reported in the supplement of paper PMC8728848.
The list shows a part of the results.

Key:
Assay in all cases: glycan array binding signal (z-score within array); higher = stronger binding
Conditions in all cases: glycan notation: IUPAC condensed, linker removed
[1] = target: Fuc(a1-2)Gal(b1-4)GlcNAc(b1-3)Gal(b1-4)GlcNAc(b1-2)Man(a1-3)[Fuc(a1-2)Gal(b1-4)GlcNAc(b1-3)Gal(b1-4)GlcNAc(b1-2)Man(a1-6)]Man(b1-4)GlcNAc(b1-4)GlcNAc
Method in brief: (§1)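 Glycan array binding is given as a within-array Z-score, which can be read as non-binding when negative. The arrays, 3228 of them, came from the Consortium for Functional Glycomics database and were retained only where the protein sequence was available. Z-scores were averaged across arrays of the same protein sequence at different concentrations or buffers and across linkers.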

[2] = target: Fuc(a1-2)Gal(b1-4)GlcNAc(b1-3)Gal(b1-4)GlcNAc(b1-3)Gal(b1-4)GlcNAc
Method in brief: as §1

[3] = target: Fuc(a1-2)Gal(b1-4)GlcNAc(b1-3)GalNAc
Method in brief: as §1

[4] = target: Fuc(a1-2)Gal(b1-4)GlcNAc(b1-3)[Fuc(a1-2)Gal(b1-4)GlcNAc(b1-6)]GalNAc
Method in brief: as §1

[5] = target: Fuc(a1-2)Gal(b1-4)GlcNAc(b1-3)[Fuc(a1-3)[Gal(b1-4)]GlcNAc(b1-6)]Gal(b1-4)Glc
Method in brief: as §1

[6] = target: Fuc(a1-2)Gal(b1-4)GlcNAc(b1-6)GalNAc
Method in brief: as §1

[7] = target: Fuc(a1-2)Gal(b1-4)GlcNAc6S
Method in brief: as §1

[8] = target: Fuc(a1-2)Gal(b1-4)[Fuc(a1-3)]GlcNAc
Method in brief: as §1

[9] = target: Fuc(a1-2)Gal(b1-4)[Fuc(a1-3)]GlcNAc(b1-2)Man(a1-3)[Fuc(a1-2)Gal(b1-4)[Fuc(a1-3)]GlcNAc(b1-2)Man(a1-6)]Man(b1-4)GlcNAc(b1-4)[Fuc(a1-6)]GlcNAc
Method in brief: as §1

[10] = target: Fuc(a1-2)Gal(b1-4)[Fuc(a1-3)]GlcNAc(b1-2)[Fuc(a1-2)Gal(b1-4)[Fuc(a1-3)]GlcNAc(b1-4)]Man(a1-3)[Fuc(a1-2)Gal(b1-4)[Fuc(a1-3)]GlcNAc(b1-2)Man(a1-6)]Man(b1-4)GlcNAc(b1-4)GlcNAc
Method in brief: as §1

[11] = target: Fuc(a1-2)Gal(b1-4)[Fuc(a1-3)]GlcNAc(b1-3)Gal(b1-4)[Fuc(a1-3)]GlcNAc
Method in brief: as §1

[12] = target: Fuc(a1-2)Gal(b1-4)[Fuc(a1-3)]GlcNAc(b1-3)Gal(b1-4)[Fuc(a1-3)]GlcNAc(b1-3)Gal(b1-4)[Fuc(a1-3)]GlcNAc
Method in brief: as §1

[13] = target: Fuc(a1-2)Gal(b1-4)[Fuc(a1-3)]GlcNAc(b1-3)GalNAc
Method in brief: as §1

[14] = target: Fuc(a1-2)Gal(b1-4)[Fuc(a1-3)]GlcNAc(b1-3)[Neu5Ac(a2-6)Gal(b1-4)GlcNAc(b1-6)]Gal(b1-4)Glc
Method in brief: as §1

[15] = target: Fuc(a1-2)Gal3S(b1-4)GlcNAc
Method in brief: as §1

[16] = target: Fuc(a1-2)Gal6S(b1-3)GlcNAc
Method in brief: as §1

[17] = target: Fuc(a1-2)Gal6S(b1-3)GlcNAc6S
Method in brief: as §1

[18] = target: Fuc(a1-2)Gal6S(b1-4)Glc
Method in brief: as §1

[19] = target: Fuc(a1-2)Gal6S(b1-4)Glc6S
Method in brief: as §1

[20] = target: Fuc(a1-2)[Gal(a1-3)]Gal
Method in brief: as §1

[21] = target: Fuc(a1-2)[Gal(a1-3)]Gal(b1-3)GalNAc
Method in brief: as §1

[22] = target: Fuc(a1-2)[Gal(a1-3)]Gal(b1-3)GalNAc(b1-3)Gal(a1-4)Gal(b1-4)Glc
Method in brief: as §1

[23] = target: Fuc(a1-2)[Gal(a1-3)]Gal(b1-3)GlcNAc
Method in brief: as §1

[24] = target: Fuc(a1-2)[Gal(a1-3)]Gal(b1-3)GlcNAc(b1-2)Man(a1-3)[Fuc(a1-2)[Gal(a1-3)]Gal(b1-3)GlcNAc(b1-2)Man(a1-6)]Man(b1-4)GlcNAc(b1-4)GlcNAc
Method in brief: as §1

[25] = target: Fuc(a1-2)[Gal(a1-3)]Gal(b1-3)GlcNAc(b1-2)Man(a1-3)[Fuc(a1-2)[Gal(a1-3)]Gal(b1-3)GlcNAc(b1-2)Man(a1-6)]Man(b1-4)GlcNAc(b1-4)[Fuc(a1-6)]GlcNAc
Method in brief: as §1

[26] = target: Fuc(a1-2)[Gal(a1-3)]Gal(b1-3)GlcNAc(b1-3)GalNAc
Method in brief: as §1

[27] = target: Fuc(a1-2)[Gal(a1-3)]Gal(b1-3)GlcNAc(b1-6)GalNAc
Method in brief: as §1

[28] = target: Fuc(a1-2)[Gal(a1-3)]Gal(b1-4)Glc
Method in brief: as §1

[29] = target: Fuc(a1-2)[Gal(a1-3)]Gal(b1-4)GlcNAc
Method in brief: as §1

[30] = target: Fuc(a1-2)[Gal(a1-3)]Gal(b1-4)GlcNAc(b1-2)Man
Method in brief: as §1

B1: RsaA-N-term (Caulobacter crescentus), P35828 (protein)
chain: MAYTTAQLVTAYTNANLGKAPDAATTLTLDAYATQTQTGGLSDAAALTNTLKLVNSTTAVAIQTYQFFTGVAPSAAGLDFLVDSTTNTNDLNDAYYSKFAQENRFINFSINLATGAGAGATAFAAAYTGVSYAQTVATAYDKIIGNAVATAAGVDVAAAVAFLSRQANIDYLTAFVRANTPFTAAADIDLAVKAALIGTILNAATVSGIGGYATATAAMINDLSDGALSTDNAAGVNLFTAYPSSGVSGSTLSLTTGTDTLTGTANNDTFVAGEVAGDGSGWSHPQFEKGG
For B1, the “glycan array binding signal (z-score)” value [1] was 0.407, the “glycan array binding signal (z-score)” value [2] was 1.12 and the “glycan array binding signal (z-score)” value [3] was -0.586. The “glycan array binding signal (z-score)” value [4] was -0.459, the “glycan array binding signal (z-score)” value [5] was -0.212 and the “glycan array binding signal (z-score)” value [6] was 0.406. For the same binder, the “glycan array binding signal (z-score)” value [7] was 1.98, the “glycan array binding signal (z-score)” value [8] was -0.091 and the “glycan array binding signal (z-score)” value [9] was 0.618. For the same binder, the “glycan array binding signal (z-score)” value [10] was 2.4, the “glycan array binding signal (z-score)” value [11] was -0.047 and the “glycan array binding signal (z-score)” value [12] was -1.26. For the same binder, the “glycan array binding signal (z-score)” value [13] was -0.298, the “glycan array binding signal (z-score)” value [14] was -0.218 and the “glycan array binding signal (z-score)” value [15] was -0.243. For the same binder, the “glycan array binding signal (z-score)” value [16] was -1.23, the “glycan array binding signal (z-score)” value [17] was 0.619 and the “glycan array binding signal (z-score)” value [18] was -1.02. The “glycan array binding signal (z-score)” value [19] was -0.09, the “glycan array binding signal (z-score)” value [20] was -0.627 and the “glycan array binding signal (z-score)” value [21] was -0.328. The “glycan array binding signal (z-score)” value [22] was -0.219, the “glycan array binding signal (z-score)” value [23] was -0.677 and the “glycan array binding signal (z-score)” value [24] was 0.3. The “glycan array binding signal (z-score)” value [25] was -0.025, the “glycan array binding signal (z-score)” value [26] was -1.3 and the “glycan array binding signal (z-score)” value [27] was -0.558. For the same binder, the “glycan array binding signal (z-score)” value [28] was -0.356, the “glycan array binding signal (z-score)” value [29] was 1.14 and the “glycan array binding signal (z-score)” value [30] was -0.159.
